Source: patent US20150238483A1, “Traitement des neuronopathies motrices” (CENTRE NATIONAL DE LA RECHERCHE SCIENTIFIQUE- CNRS, priority 2012, published 2015)
Where a name gives a salt, the structure may show the parent alone.

Tested on: immortalized SMA fibroblasts
Experiment: Distribution of the SMN protein to Cajal bodies (CBs) in immortalized SMA fibroblasts, immunolabeling, cells counted
Format: cell-based, human
Conditions: compounds diluted to 1/1000 compared with examples 1 and 2; FIG. 1
Procedure: This immortalization is described in the publication Lefebvre S, Burlet P, Viollet L, Bertrandy S, Huber C, Belser C and Munnich A. A novel association of the SMN protein with major non-ribosomal nucleolar proteins and its implication in spinal muscular atrophy. Hum Mol Genet (2002) 11 (9): 1017-1027.
The blockers of the invention are commercially available (for example from Sigma-Aldrich) and are sold in 96-well plates, at 2 milligrams per molecule per well to be dissolved in 1 ml of DMSO.
In order to determine whether the calcium channel blockers exerted a positive effect, the inventors counted the cells which had the SMN protein located in the CBs out of 100 cells randomly selected for each experiment.
This experiment was repeated three times.
A value of induction by a factor equal to 1 was arbitrarily assigned to DMSO.
In order to evaluate the relationship between the concentration (dose) and the effect (response) on the CBs of the immortalized SMA cells, the inventors constructed a dose-response curve for each of the molecules.

Q: With CCCCc1oc2ccccc2c1C(=O)c1cc(I)c(OCCN(CC)CC)c(I)c1 [Amiodarone hydrochloride, (2-butyl-3-benzofuranyl)[4-[2-(diethylamino)ethoxy]-3,5-diiodophenyl]methanone hydrochloride] as the molecule, how does the “induction factor of SMN protein distribution to CBs (DMSO = 1)” value read?
A: 1
